Assay results published in patent US12686723.
No constants are given. Whether binding was seen depends on the method and setting. Some entries that bind do so weakly or less than the wild type.

By UniProt entry, the sequences of proteins in these tests, tags left out.
UniProt Q02223: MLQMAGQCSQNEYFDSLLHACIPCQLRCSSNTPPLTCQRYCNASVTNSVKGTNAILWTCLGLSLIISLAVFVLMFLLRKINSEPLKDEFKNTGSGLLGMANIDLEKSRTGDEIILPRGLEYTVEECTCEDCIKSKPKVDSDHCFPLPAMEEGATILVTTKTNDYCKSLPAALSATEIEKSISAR

Target: BCMA expressed on the surface of U266 cells (human) (UniProt Q02223)
Assay: flow cytometry on U266 cells, hybridoma supernatant, goat anti-mouse IgG-PE

| Binder | binding |
| --- | --- |
| anti-human BCMA monoclonal antibody 18D10 (antibody, human IgG1, kappa, V domains shown) VH: EVRLVESGGGLVQPGRSLRLSCAASGFTSNDYAMHWVRQAPGRGLEWVSGISWNSDSIGYADSVKGRFTISRDNAKNSLYLQMNSLRTEDTALYYCATVVSAYFDYWGQGTLVTVSS VL: DIQMTQSPSSLSASVGDRVTITCRTSQSISTYLNWYQQKPGKAPKLLIYAASSLKSGVPSRFSGSGSGTDFTLTISSLQPEDFATYFCQGSYIIPLTFGGGTRVEIKR | binds |
| anti-human BCMA monoclonal antibody 15H6 (antibody, human IgG1, kappa, V domains shown) VH: QVQLVQSGAEVKKPGASAKVSCKASGYTFTSYAMQWVRQAPGQRLEWMGWINAGNGNTKYSQKFQGRVTITRDTSASTAYMELSSLRSEDTAVYYCARGGRLELDIYYYFYYMDVWGKGTTVTVSS VL: DIVMSQSPDSLAVSLGERTTINCKSSQSVLHSSQNKNYLAWYQQKPGQPPNPLIHWASTRESGVPDRFSGSGSGTDFTLTISSLQAEDVAVYYCQQYYRVPFTFGPGTKVDIKR | binds |
| anti-human BCMA monoclonal antibody 15A7 (antibody, human IgG1, kappa, V domains shown) VH: EVQLVESGGGLVQPGGSLRLSCEASGFTFDDCAMHWVRQTPGKGLEWVSGISWNSDTMGYADSVKGRFIISRDNAKNSLYLQMNSLRVEDTALYHCTRVRAAVFDYWGQGVLVTVSS VL: DIHMTQSPSSLSASVGDRVTITCRASQSISSYLNWFQQKPGKAPTVLIYAASSLQSGVSSRFSGRGSGADFTLTISSLQPEDFASYFCQQSFSPLYIFGQGTKVEIKR | binds |

The next lines start with the values.

| binding | Binder |
| --- | --- |
| binds | anti-human BCMA monoclonal antibody 20A9 (antibody, human IgG1, kappa, V domains shown) VH: QVQLVQSGAEVKKPGASAKVSCKASGYTFTSYAMQWVRQAPGQRLEWMGWINAGNGNIKYSQKFQGRVTITRDTSASTAYMELSSLRSEDTAVYYCARGGRLELDVYYYFYYMDVWGKGTTVTVSS VL: DIVMSQSPDSLAVSLGERTTINCKSSQSVLHSSQNKNYLAWYQQKPGQPPNPLIHWASTRESGVPDRFSGSGSGTDFTLTISSLQAEDVAVYYCQQYYRVPFTFGPGTKVDIKR |
| binds | anti-human BCMA monoclonal antibody 20A2 (antibody, human IgG1, kappa, V domains shown) VH: QIQLVQSGAEVKKPGASVKVSCKASGYTFTAYYLHWVRQSPGHGLEWMGRIYPNSGDTNYAQKFQGRVTMTRDTSINTAYMELSRLRSDDTALYYCARGFNWNYEGGFDIWGQGTMVTVSS VL: DVVMTQSPLSLSVTLGQPASISCRSGQSLVYSDGNTYLNWFQQRPGQSPRRLIYKLSSRDSGVPDRFSGSGSGTDFTLKISRMEAEDVGVYYCMQRTHWPPTFGQGTKVEIKR |
| binds | anti-human BCMA monoclonal antibody 27A7 (antibody, human IgG1, kappa, V domains shown) VH: EVQLVESGGGLVQPGRSLRLSCAASGFTFDDHAMHWVRQAPGKGLEWVSGISWNSVHIGYADSVKGRFTISRDNAKNSLYLQMNSLRAEDTALYYCAKDIFSPTGDDYWGQGTLVTVSS VL: DIQMTQSPSSLSASVGDRVTITCRASQDIRNNLGWFQQKPGKTPKRLIYAASSLQSGVPSRFSGSGSGTEFTLTISSLQPEDFATYYCLHHNSYPPTFGQGTKVEIKR |
| binds | anti-human BCMA monoclonal antibody 23C4 (antibody, human IgG1, kappa, V domains shown) VH: EVQLVESGGGLVQPGRSLRLSCAASGFTFADHAMHWVRQAPGKGLEWVSGISWNSDHIGYADSVKGRFTISRDNAKNSLYLQMNSLRPEDTALYYCAKDIFSPTGDGYWGQGTLVTVSS VL: DIQMTQSPSSLSASVGDRVTITCRASQDIRNNLGWFQQKPGKTPKRLIYAASSLQSGVPSRFSGSGSGTEFTLIISSLQPEDFATYYCLHHNSYPPTFGQGTKVEIKR |
